{"source": "PubChem BioAssay AID1296", "about": "(Columbia University Molecular Screening Center, 2008)", "note": "About 1,000 (0.77%) of roughly 130,000 compounds were called active. The inconclusive results got no clear call from the source; some entries with a clear call stand among them for comparison.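 The calls were made as follows: active = activation at 2 µM above a set limit, confirmed on inspection of the cell images; inconclusive = above the set limit but not confirmed on image inspection; inactive = the rest.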", "data": [{"experiment": "activators of insulin promoter-driven GFP, primary screen, imaging, TRM-6 cells (human fetal islet line), eGFP reporter, cell count (AID 1296;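 also: share of cells whose green reporter signal exceeds an intensity cutoff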)", "conditions": "at 2 µM, stronger effect = higher value, plate-scaled: unstimulated 0, stimulated control 100", "in_short": "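Test system: TRM-6 insulin promoter–eGFP reporter cells / Quantity: 1,000 cells per well / Reagent: tamoxifen inducer, 0.75 µM, in seeding medium / Compound dosing: 2 µM final, single concentration / Schedule: overnight tamoxifen, then two-day compound incubation at 37 °C / Measured by: automated fluorescence imaging of paraformaldehyde-fixed, Hoechst-counterstained cells, green channel / Read-out: percent activation from GFP-positive cell fraction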", "values": [{"smiles": "CC(C)(C)c1cc(C(=O)NCc2ccccc2)ccn1", "activation": "inactive: -90%"}, {"smiles": "CCC(CO)NC1=CC(=O)CCC1", "note": "(stereo not given)", "activation": "inactive: 0%"}, {"smiles": "O=C1CCC([N+](=O)[O-])C(c2ccccc2Cl)N1", "note": "(stereo not given)", "activation": "active: 78.6%"}, {"smiles": "COc1ccc(NS(=O)(=O)c2ccc(OCC(=O)N3CCOCC3)cc2)cc1", "activation": "inactive: 0%"}, {"smiles": "COc1cc(Br)cc(-c2nc3c(c(=O)[nH]c(=O)n3Cc3ccccc3)n2C)c1O", "activation": "inactive: -6.45%"}, {"smiles": "Cc1ccc(C)n1-n1c(C)nc2scc(-c3ccccc3)c2c1=O", "activation": "inconclusive: 471%"}, {"smiles": "CCCC(=O)Nc1ccc(C(=O)NCCCn2ccnc2)cc1", "activation": "active: 456%"}, {"smiles": "CC(=O)Nc1ccc(C(=O)OCC(=O)NC2CCCCCCC2)cc1", "activation": "inactive: 0%"}, {"smiles": "COc1cc(/C(C)=N/N2CCOCC2)cc(OC)c1OC", "activation": "inactive: 0%"}, {"smiles": "CC1CCCN(c2ccc([N+](=O)[O-])cc2C(=O)c2ccccc2)C1", "note": "(stereo not given)", "activation": "inconclusive: 350% [cytotoxic]"}, {"smiles": "O=C(O)c1ccc(N2C(=O)/C(=C/c3ccc(-c4ccc([N+](=O)[O-])cc4)o3)C=C2c2ccccc2)cc1", "activation": "inconclusive: 154%"}, {"smiles": "O=C(Nc1ccc(N2CCOCC2)nc1)c1ccc(C(F)(F)F)cc1", "activation": "inconclusive: 236%"}, {"smiles": "O=[N+]([O-])c1cc(CN2CCN(c3cccc(C(F)(F)F)c3)CC2)c2cccnc2c1O", "activation": "inconclusive: 736% [cytotoxic]"}, {"smiles": "C=CCNC(=S)Nc1sc2c(c1C#N)CCCC2", "activation": "inactive: 105%"}, {"smiles": "S=C(NCc1ccccc1)N1CCn2cccc2C1c1cccnc1", "note": "(stereo not given)", "activation": "active: 124%"}, {"smiles": "COc1ccc(CN2CCN(Cc3csc(C(C)=O)c3)CC2CCO)c(C)c1C", "note": "(stereo not given)", "activation": "inactive: 4.76%"}, {"smiles": "CCC(CO)n1c(=S)[nH]c2cc(OC)c(OC)cc2c1=O", "note": "(stereo not given)", "activation": "inactive: -7.14%"}, {"smiles": "CCN1/C(=C/c2ccc3cc(C)cc(C)c3[n+]2CC)Sc2cc(C)ccc21", "activation": "active: 413%"}, {"smiles": "COc1ccc(S(=O)(=O)Nc2cc3c(C(C)=O)c(C)oc3c3ccccc23)cc1", "activation": "inconclusive: 154% [cytotoxic]"}, {"smiles": "COc1cccc(N/C=C/C(=O)c2ccc(Br)cc2)c1", "activation": "inactive: 4.17%"}, {"smiles": "CCOc1ccccc1-n1c(SCC(N)=O)nc2ccccc2c1=O", "activation": "inactive: 2.78%"}, {"smiles": "O=C1CC(c2cccs2)CC2=C1C(c1ccccc1)n1ncnc1N2", "note": "(stereo not given)", "activation": "inconclusive: 493%"}, {"smiles": "CCCCSc1nnc2n(CCc3ccccc3)c(=O)c3c4c(sc3n12)COC(C)(C)C4", "activation": "inconclusive: 471%"}, {"smiles": "CCC/C=N/NC(=O)c1cc(Br)ccc1O", "activation": "inconclusive: 267%"}, {"smiles": "COC(=O)COc1ccc(S(=O)(=O)Nc2ccc(C(N)=O)cc2)cc1C", "activation": "inactive: 3.33%"}, {"smiles": "CCN(CC)S(=O)(=O)c1cccc(C(=O)Nc2sc3c(c2C(N)=O)CCCC3)c1", "activation": "inactive: -5.41%"}, {"smiles": "Cc1ccc(OCn2c(=O)sc3ccccc32)cc1", "activation": "active: 437%"}, {"smiles": "CCOc1ccc(C(=O)c2cc([N+](=O)[O-])ccc2N2CCOCC2)cc1", "activation": "inconclusive: 358% [cytotoxic]"}, {"smiles": "CCCNC(=O)Cn1c(=O)/c(=C\\c2ccc(-c3ccc([N+](=O)[O-])cc3)o2)s/c1=C\\C(=O)C(C)(C)C", "activation": "active: 270%"}, {"smiles": "COC(=O)c1sccc1-n1cccc1C(=O)C(=O)N1CC(C)OC(C)C1", "note": "(stereo not given)", "activation": "inactive: 329%"}, {"smiles": "CCn1c(SCC(=O)NCc2ccccc2)nnc1-c1cccnc1", "activation": "inactive: 0%"}, {"smiles": "CC(=O)Cc1cc(O)c2ccccc2c1OC(=O)c1ccccc1", "activation": "inconclusive: 218%"}, {"smiles": "O=C(CSc1nnc(-c2ccc(Cl)cc2)n1Cc1ccco1)NCc1ccc2c(c1)OCO2", "activation": "active: 80%"}, {"smiles": "COc1cc(NC(=O)Cc2ccccc2OC)cc(OC)c1", "activation": "active: 435%"}, {"smiles": "CCOC(=O)N1CCN(C(=O)c2ccc(NC(=O)c3ccc(C)cc3)cc2)CC1", "activation": "inconclusive: 417%"}, {"smiles": "O=C(NCc1cccnc1)C1c2ccccc2C(=O)N1C1CCCCCCC1", "note": "(stereo not given)", "activation": "active: 156%"}, {"smiles": "Cc1nn(CCCC(=O)Nc2c(F)cc(F)cc2Br)c(C)c1[N+](=O)[O-]", "activation": "inconclusive: 94.1%"}, {"smiles": "CCOC(=O)c1c(CN2CCN(C)CC2)oc2ccc(OC)cc12", "activation": "active: 138%"}, {"smiles": "Cc1ccc(S(=O)(=O)/N=C2/C=C(Sc3ncn[nH]3)C(=O)c3ccccc32)cc1", "activation": "inconclusive: 210% [cytotoxic]"}, {"smiles": "CC(C)CCOc1ccc(C(CC(N)=O)C(=O)O)cc1", "note": "(stereo not given)", "activation": "inconclusive: 408%"}, {"smiles": "COc1cc2cc(CN(Cc3cccs3)C(=S)Nc3cccc(C)c3)c(=O)[nH]c2cc1OC", "activation": "active: 354%"}, {"smiles": "COc1ccccc1N(CC(=O)NCC1CCCO1)C(=O)CCC(=O)Nc1nccs1", "note": "(stereo not given)", "activation": "inconclusive: 438%"}, {"smiles": "CC(=O)NCCCc1nc2ccccc2n1Cc1ccc(C)cc1", "activation": "inconclusive: 529%"}, {"smiles": "O=C(c1ccc2c(c1)OCCO2)N1CCN(c2ccc([N+](=O)[O-])cc2)CC1", "activation": "inactive: 7.14%"}, {"smiles": "C=CCSc1nnc(NC(=O)CSc2nc(CCC)cc(=O)[nH]2)s1", "activation": "inconclusive: 453%"}, {"smiles": "Cc1cccc(NC(=O)C(=O)NCCCN2CCOCC2)c1", "activation": "inactive: 2.56%"}, {"smiles": "O=c1c2ccccc2nc(SCc2nc(-c3ccccc3)no2)n1-c1ccc(F)cc1", "activation": "inactive: 37.5%"}, {"smiles": "CC[n+]1c(/C=C/Nc2ccccc2)oc2ccccc21", "activation": "active: 138%"}, {"smiles": "N#Cc1c(N)sc2c1CCN(CCc1ccccc1)C2", "activation": "inconclusive: 512%"}, {"smiles": "Cc1ccc(S(=O)(=O)NCCOc2nc(N3CCOCC3)nc(N3CCOCC3)n2)cc1", "activation": "inactive: -3.57%"}, {"smiles": "Cc1ccc(NC(=O)CO/N=C/c2ccc(N(C)C)cc2)cc1", "activation": "inconclusive: 223%"}, {"smiles": "Cc1ccc(-n2c(C)cc(C)c(C#N)c2=O)cc1Cl", "activation": "inconclusive: 533%"}, {"smiles": "Nc1nc(C(=O)N2CCOCC2)nn1C(=O)c1ccc(Cl)cc1", "activation": "inconclusive: 250%"}, {"smiles": "Nc1nc(SCc2ccccc2Cl)ns1", "activation": "inactive: 177%"}, {"smiles": "CC1(C)CC(=O)C=C(NC2CCS(=O)(=O)C2)C1", "note": "(stereo not given)", "activation": "inconclusive: 525%"}, {"smiles": "Cc1ccc(C(C)C)c(OCc2nnc(SCC(=O)Nc3nccs3)n2C)c1", "activation": "inconclusive: 425%"}, {"smiles": "COc1ccccc1N1CCN(/N=C/C=C\\c2ccco2)CC1", "activation": "inconclusive: 86.5%"}, {"smiles": "COc1ccc(CS(=O)(=O)/C(Cl)=C(/Cl)C(=O)Nc2ccc(OC)nc2)cc1", "activation": "inconclusive: 87.1% [cytotoxic]"}, {"smiles": "COC(=O)C1=NN(c2ccc(Cl)cc2)C2C(=O)N(c3ccccc3OC)C(=O)C12", "note": "(stereo not given)", "activation": "inactive: -3.33%"}, {"smiles": "COc1cc(NS(=O)(=O)c2ccc3c(c2)n(C)c(=O)n3C)cc(OC)c1", "activation": "inactive: -8.33%"}, {"smiles": "O=C(NCC1COc2ccccc2O1)c1ccc(NC(=O)c2ccco2)cc1", "note": "(stereo not given)", "activation": "inconclusive: 481%"}, {"smiles": "CCOC(=O)N(NC(=O)C(O)(C(C)C)C(C)C)c1ccccc1", "activation": "active: 112%"}, {"smiles": "CCOC(=O)C1(CCOc2ccccc2)CCN(Cc2ccc3nonc3c2)CC1", "activation": "inactive: 0%"}, {"smiles": "CCOC(=O)c1cnn(-c2ncnc3sc(CC)cc23)c1N", "activation": "inconclusive: 436%"}, {"smiles": "O=C(Nc1cc(C(F)(F)F)ccc1N1CCCCC1)c1ccco1", "activation": "inconclusive: 462%"}, {"smiles": "Cc1[nH]cc(Br)c(=O)c1Oc1ncc(C(F)(F)F)cc1Cl", "activation": "inactive: -7.69%"}, {"smiles": "O=C(Nc1ccccc1Cl)N1CCN(c2ccc3nnc(-c4ccc(F)cc4)n3n2)CC1", "activation": "inconclusive: 121%"}, {"smiles": "Cc1nn(C)c(C)c1S(=O)(=O)N1CCCC(C(=O)N2CCN(c3ccc(Cl)cc3)CC2)C1", "note": "(stereo not given)", "activation": "inconclusive: 77.5%"}, {"smiles": "CC1CC2(NC(=O)NC2=O)C(C)CN1C", "note": "(stereo not given)", "activation": "inconclusive: 436%"}, {"smiles": "CC1CCN(Cc2c(O)ccc3c2O/C(=C\\c2ccco2)C3=O)CC1", "activation": "active: 486%"}, {"smiles": "COc1cc(C(=O)N/N=C\\c2ccccc2)c([N+](=O)[O-])c(OC)c1OC", "activation": "inconclusive: 470%"}, {"smiles": "Cc1onc(-c2ccccc2Cl)c1C(=O)N1CCN(Cc2ccc3c(c2)OCO3)CC1", "activation": "inactive: -2.56%"}, {"smiles": "O=C(NC1CCCC1)C1CCC(=O)N1CCc1ccccc1", "note": "(stereo not given)", "activation": "inconclusive: 139%"}, {"smiles": "COc1ccc(/C(C)=C2/SC(=S)N(CCC(=O)O)C2=O)cc1", "activation": "inconclusive: 475%"}, {"smiles": "CC1CCCN(S(=O)(=O)c2ccc(NC(=O)CN3CCN(C)CC3)cc2)C1", "note": "(stereo not given)", "activation": "inconclusive: 174%"}, {"smiles": "C=CCNC(=O)CSc1nnc(-c2ccncc2)n1CCc1ccccc1", "activation": "inconclusive: 467%"}, {"smiles": "CN(C)S(=O)(=O)c1cccc(-c2nn(-c3ccccc3)cc2/C=C(\\C#N)c2nc3ccccc3[nH]2)c1", "activation": "inconclusive: 407% [cytotoxic]"}, {"smiles": "Cc1ccc(-c2nnc(Sc3nc4ccccc4o3)c3ccccc23)cc1", "activation": "active: 590%"}, {"smiles": "CCCS(=O)(=O)NCCc1cc2c(C)ccc(C)c2[nH]c1=O", "activation": "inconclusive: 211%"}, {"smiles": "CC1Cc2ccccc2N1C(=O)CCNS(=O)(=O)c1cccc2nsnc12", "note": "(stereo not given)", "activation": "inconclusive: 129%"}, {"smiles": "CC(C)(C)Nc1nc(NC(C)(C)C)nc(-n2ccnc2)n1", "activation": "inactive: 348%"}, {"smiles": "Cn1c(C(=O)OC(C(=O)NC2CCCCC2)c2cccnc2)cc2sccc21", "note": "(stereo not given)", "activation": "inconclusive: 533%"}, {"smiles": "CCCOc1ccc2nc(NC(=O)OC)[nH]c2c1", "activation": "inconclusive: 305% [cytotoxic]"}, {"smiles": "Cc1c(Cl)c([N+](=O)[O-])nn1Cc1ccc(C(=O)Nc2ccc(Cl)cn2)o1", "activation": "inactive: 3.23%"}, {"smiles": "CC(C)(C)C1C/C(=C/c2ccco2)C(=O)/C(=C/c2ccco2)C1", "note": "(stereo not given)", "activation": "inconclusive: 293%"}, {"smiles": "Cc1ccc(-c2csc3ncnc(N4CCN(C(=O)c5ccccc5)CC4)c23)cc1", "activation": "inactive: 0%"}, {"smiles": "COc1ccc(C(=O)c2sc3nc(-c4ccccc4)ccc3c2N)cc1", "activation": "active: 207%"}, {"smiles": "O=c1cc(CSc2nnnn2-c2ccccc2)nc2nc[nH]n12", "activation": "inconclusive: 500%"}, {"smiles": "O=c1cc(N2CCc3ccccc32)[nH]c(=O)n1-c1ccccc1", "activation": "inconclusive: 610%"}, {"smiles": "COc1ccccc1Cn1nnc2c(=O)[nH]c(C3CCN(C(=O)c4ccccc4Cl)CC3)nc21", "activation": "inconclusive: 86.5%"}]}]}
